We go through 110 sequences from the supplement of paper PMC3334620.

Over roughly 33,000 sequences, “E-score (-0.5 to 0.5)” has its median near -8e-05; the highest 2% begin near 0.23. Some of the results follow.

The assay concerns the target T1, Nrg2 (UniProt P38082).
T1 sequence: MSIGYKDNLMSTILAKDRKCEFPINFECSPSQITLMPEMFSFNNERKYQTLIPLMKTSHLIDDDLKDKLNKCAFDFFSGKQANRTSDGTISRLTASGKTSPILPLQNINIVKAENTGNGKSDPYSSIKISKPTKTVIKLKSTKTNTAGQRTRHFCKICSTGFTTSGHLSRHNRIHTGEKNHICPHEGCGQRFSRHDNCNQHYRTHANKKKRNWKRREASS
The assay can be described thus: PBM E-score (8-mer binding enrichment) (E-score (-0.5 to 0.5)); higher = stronger / more preferred TF binding. To be noted: protein concentration: 100 nM; construct: GST-full length. An outline of the steps:
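E-scores (a modified Wilcoxon-Mann-Whitney statistic) were assigned by the Universal PBM Analysis Suite to every ungapped eight-base word pooled with its reverse complement. The input came from universal all-10-mer Agilent arrays made double-stranded by primer extension and probed with GST-tagged yeast transcription factors at about 100-200 nM. Fluorescent anti-GST detected bound protein, and masliner normalised the scans.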
Take AAGCTAAC: the “PBM E-score” value was 0.0145. Then AGACCCAT, with -0.0557; and ACGGAGAA, with -0.0632; and AATTGCCT, with 0.0385.

On to CCGTCTTC, for which the “PBM E-score” value was -0.0617. Regarding CACCAAAG, the “PBM E-score” value was determined as 0.142. Take CTACCTGA: the “PBM E-score” value was -0.184. Take ATGAACCC: the “PBM E-score” value is 0.217. Then GGTGCAGA, with -0.0954.

On to CGGGAGCA, for which the “PBM E-score” value is -0.132. Turning to CACTTTGC, the “PBM E-score” value stood at 0.00398. Turning to GCAGCAAC, the “PBM E-score” value came out at 0.165. For TATGTCCA the value was -0.0135; for AATGCGCA, 0.296.

Regarding AGTTACGG, the “PBM E-score” value was -0.132. Turning to CTTCGCAC, the “PBM E-score” value is -0.0537. Consider TGGAACAA, for which the “PBM E-score” value turned out to be 0.155. For GTCTCATA the value was -0.00328. For CAGACAGC the value was -0.0799; for ACAAGAGC, 0.0831; for GTGCGTAA, -0.0379. Then AATTCCTG, with -0.173; and ATGTATTG, with 0.131; and AACAATAC, with 0.202. In the case of CAGGTATC, the “PBM E-score” value came out at 0.0306.

Regarding ATTACAAA, the “PBM E-score” value worked out at 0.0937. For TCACCACA the value was 0.0975; for CATTTTTC, -0.00355. For CAAGCCAC the value was -0.154; for AGACCCTA, 0.148; for ATTCAGCG, 0.0761. For AAATACGC the value was 0.125; for AAGTCTTC, -0.177. For the sequence GACCCACA, the “PBM E-score” value amounted to 0.154. For the sequence AGATGTTC, the “PBM E-score” value was -0.105.

On to ACAATTCG, for which the “PBM E-score” value turned out to be 0.111. Then CGGCACAA, with 0.0208; and AAATCCGC, with -0.103. Then CCGCCCGA, with 0.148; and ATACGAAA, with 0.13.

For the sequence ACCAGGGG, the “PBM E-score” value is -0.0407. On to AAATCGAG, for which the “PBM E-score” value was 0.0129. Then GGTTTGTA, with 0.014; and CCATGTAC, with -0.192; and CGGCCTTC, with 0.0996. Then ACTAATAC, with 0.131; and CGCTGCAC, with 0.0587.

Turning to CTGTTAAA, the “PBM E-score” value was -0.0898. With GCCGTAAC, the “PBM E-score” value was -0.134. For CAGCCGGA the value was 0.0548.

Take AATACTGC: the “PBM E-score” value turned out to be 0.068. For CATTCCTA the value was -0.0667. For ACTCCTTA the value was 0.061; for GCCCACAA, 0.00478. Then ACGGCACC, with -0.343; and TCGAATCA, with 0.138.

With AAGTATAA, the “PBM E-score” value amounted to 0.156. In the case of TCATTCCA, the “PBM E-score” value came to 0.0235.

Take GTGCCGCA: the “PBM E-score” value was 0.014. As for CAATGGCG, the “PBM E-score” value came to 0.0508. For TCGAGGCA the value was 0.0832; for AGCTCGAA, 0.228; for AAAAGCGC, 0.0157. Take GAAATGGC: the “PBM E-score” value was found to be 0.0113. For CGAGAGCC the value was -0.167; for AACTAACC, 0.226; for ATTGTCAA, 0.0134. Then ACCTAAGT, with 0.126; and ACGGGACT, with -0.0768. In the case of GATAAATC, the “PBM E-score” value amounted to 0.023. For CAGTTACC the value was -0.0336; for ACGCCGCA, 0.0786. Then TCCCTCCA, with -0.19; and CATAGAAG, with -0.0461. Then CAGCGGTA, with 0.0158; and AGCCTAGA, with -0.252. On to CGTAGGGC, for which the “PBM E-score” value is -0.238. Regarding AATTGACA, the “PBM E-score” value amounted to 0.0536. Take AACCTTGT: the “PBM E-score” value was -0.303. With CAGGGGTA, the “PBM E-score” value stood at 0.166. Then CGCTAGCG, with -0.202; and CCTCGACG, with -0.0445. For CGGCCCAG the value was -0.264; for ACCGTCAT, -0.00617; for ACCACTAG, 0.0148.

Take TCTTCCCA: the “PBM E-score” value was -0.311. Then AAGAATGA, with 0.00394. For GCGACAGC the value was -0.088; for AAGATGCT, -0.0457; for ACTCCAGC, -0.0193.

With CCAATCCA, the “PBM E-score” value is -0.097. Then CCCGTCCG, with -0.34; and GACTCCCC, with -0.308; and AACCCCAC, with 0.0039. GCGGCGTA: the “PBM E-score” value was determined as 0.0576. Then AACCCCAT, with 0.07; and CAAGCACG, with -0.0237; and ACATGGCA, with -0.0242. Then ACATTGTG, with -0.0449; and AAACACGG, with -0.00565; and ACGCGAAG, with 0.00927. AGAGGGGG: the “PBM E-score” value is -0.401. Then AGGAGTGA, with -0.0013; and ATTAATTA, with 0.117. For AAACTACC the value was -0.00755; for CGTTTCGA, -0.0952; for ACGTGGCC, -0.227. Then CAACCCGA, with -0.0205.

Take GTAGGAAA: the “PBM E-score” value was -0.0222. As to ATATATAC, the “PBM E-score” value turned out to be 0.329.
